The other results are listed elsewhere or left out.
Columns and labels:
Assay in all cases: log2 fold change, soluble protein after heating vs DMSO (PISA); higher = thermal stabilisation; K562 cells, 10 uM, 30 min; active = over 0.2 and 3.5 SD of the protein, either way, in both replicates (recomputed)
[1] = compound: C1=CC=C(C=C1)[C@H](COC2=CC3=C(C=C2)NC(=O)N3)NC(=O)C4=CC=CN(C4=O)CC5=CC(=C(C=C5)F)F
Summary of the method: (§1)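 Soluble protein was defined as the supernatant after 21,000xg for 90 min. It came from K562 cells at 2×10^6 cells/mL given 10 μM compound for 30 min, heated in aliquots for 3 min across 48°C-58°C, pooled, and extracted in PBS with 0.5% NP-40 at 4°C, and was quantified by TMTpro 16plex LC-MS/MS with equalised channel sums. Thermal stability against control samples, from duplicates, is reported as log2 fold change.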

Protein sequences, listed by entry. Tags and fused reporters are not part of them. Lines headed by an entry give the natural chain unless they say otherwise; changes in a name come on top.
UniProt Q6ZN28: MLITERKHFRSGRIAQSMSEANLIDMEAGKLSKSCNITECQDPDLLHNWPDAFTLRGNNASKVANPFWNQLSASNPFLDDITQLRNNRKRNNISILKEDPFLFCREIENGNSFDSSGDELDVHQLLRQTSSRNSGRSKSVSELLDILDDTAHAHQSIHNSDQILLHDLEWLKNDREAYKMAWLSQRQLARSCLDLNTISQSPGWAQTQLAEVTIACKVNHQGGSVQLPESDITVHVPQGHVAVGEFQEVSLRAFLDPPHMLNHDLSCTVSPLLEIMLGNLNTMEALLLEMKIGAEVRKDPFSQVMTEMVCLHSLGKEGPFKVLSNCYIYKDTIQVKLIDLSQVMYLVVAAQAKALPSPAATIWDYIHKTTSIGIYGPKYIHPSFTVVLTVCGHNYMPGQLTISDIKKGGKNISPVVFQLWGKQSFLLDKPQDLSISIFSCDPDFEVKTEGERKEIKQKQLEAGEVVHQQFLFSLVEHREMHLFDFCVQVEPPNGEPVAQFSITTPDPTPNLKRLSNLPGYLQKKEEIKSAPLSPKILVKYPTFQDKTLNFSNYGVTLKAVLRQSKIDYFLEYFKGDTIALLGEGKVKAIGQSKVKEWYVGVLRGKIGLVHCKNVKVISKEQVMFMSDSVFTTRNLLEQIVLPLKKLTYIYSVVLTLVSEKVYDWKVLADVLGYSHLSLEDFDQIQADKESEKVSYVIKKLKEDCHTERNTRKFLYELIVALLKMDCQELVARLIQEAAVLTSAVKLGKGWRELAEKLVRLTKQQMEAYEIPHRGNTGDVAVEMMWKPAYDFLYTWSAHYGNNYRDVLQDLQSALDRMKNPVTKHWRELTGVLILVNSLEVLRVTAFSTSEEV
UniProt Q96GA3: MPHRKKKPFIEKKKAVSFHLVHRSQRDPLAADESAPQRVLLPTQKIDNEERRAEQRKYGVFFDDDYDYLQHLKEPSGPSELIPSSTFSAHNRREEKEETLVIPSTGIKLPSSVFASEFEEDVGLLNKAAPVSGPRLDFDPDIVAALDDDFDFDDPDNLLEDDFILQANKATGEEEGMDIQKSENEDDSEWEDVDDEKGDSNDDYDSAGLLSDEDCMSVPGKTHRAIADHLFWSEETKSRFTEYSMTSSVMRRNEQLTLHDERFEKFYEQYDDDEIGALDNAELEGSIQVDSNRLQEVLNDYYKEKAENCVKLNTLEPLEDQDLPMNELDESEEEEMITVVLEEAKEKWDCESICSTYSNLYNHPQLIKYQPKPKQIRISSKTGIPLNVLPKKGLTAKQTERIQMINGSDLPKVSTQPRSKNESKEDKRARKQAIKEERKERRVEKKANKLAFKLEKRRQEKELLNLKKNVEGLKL
UniProt P07948: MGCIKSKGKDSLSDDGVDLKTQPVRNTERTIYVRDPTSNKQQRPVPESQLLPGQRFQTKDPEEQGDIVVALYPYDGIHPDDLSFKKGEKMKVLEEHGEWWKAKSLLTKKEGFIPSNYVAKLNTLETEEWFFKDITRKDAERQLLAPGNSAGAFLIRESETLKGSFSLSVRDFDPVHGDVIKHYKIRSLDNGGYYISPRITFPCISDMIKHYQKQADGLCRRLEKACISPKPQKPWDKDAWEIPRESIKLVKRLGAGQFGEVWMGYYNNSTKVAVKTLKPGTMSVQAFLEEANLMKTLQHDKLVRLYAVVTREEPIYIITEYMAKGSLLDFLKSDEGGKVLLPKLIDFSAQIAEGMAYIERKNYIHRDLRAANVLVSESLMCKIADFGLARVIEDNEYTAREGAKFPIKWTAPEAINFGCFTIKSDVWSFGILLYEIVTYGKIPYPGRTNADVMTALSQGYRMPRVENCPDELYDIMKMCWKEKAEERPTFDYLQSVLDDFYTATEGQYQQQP
UniProt Q9Y6D9: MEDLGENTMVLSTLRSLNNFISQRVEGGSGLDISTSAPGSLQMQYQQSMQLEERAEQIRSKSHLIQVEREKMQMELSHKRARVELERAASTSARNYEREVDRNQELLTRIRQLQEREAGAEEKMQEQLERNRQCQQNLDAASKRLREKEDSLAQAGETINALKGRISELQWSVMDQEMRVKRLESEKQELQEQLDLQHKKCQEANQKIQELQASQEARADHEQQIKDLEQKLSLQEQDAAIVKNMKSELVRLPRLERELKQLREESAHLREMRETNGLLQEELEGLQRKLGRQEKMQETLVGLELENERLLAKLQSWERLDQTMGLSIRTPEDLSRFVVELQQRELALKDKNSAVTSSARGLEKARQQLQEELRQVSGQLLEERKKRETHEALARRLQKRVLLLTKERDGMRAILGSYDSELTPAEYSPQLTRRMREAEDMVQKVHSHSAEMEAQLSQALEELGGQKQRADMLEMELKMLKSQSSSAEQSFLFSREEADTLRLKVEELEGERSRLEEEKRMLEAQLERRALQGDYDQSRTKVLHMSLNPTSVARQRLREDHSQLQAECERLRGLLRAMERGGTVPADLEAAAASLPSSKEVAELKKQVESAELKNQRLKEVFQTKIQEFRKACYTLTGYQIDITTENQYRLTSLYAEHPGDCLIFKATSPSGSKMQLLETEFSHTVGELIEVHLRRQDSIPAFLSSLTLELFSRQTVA
UniProt Q8IWC1: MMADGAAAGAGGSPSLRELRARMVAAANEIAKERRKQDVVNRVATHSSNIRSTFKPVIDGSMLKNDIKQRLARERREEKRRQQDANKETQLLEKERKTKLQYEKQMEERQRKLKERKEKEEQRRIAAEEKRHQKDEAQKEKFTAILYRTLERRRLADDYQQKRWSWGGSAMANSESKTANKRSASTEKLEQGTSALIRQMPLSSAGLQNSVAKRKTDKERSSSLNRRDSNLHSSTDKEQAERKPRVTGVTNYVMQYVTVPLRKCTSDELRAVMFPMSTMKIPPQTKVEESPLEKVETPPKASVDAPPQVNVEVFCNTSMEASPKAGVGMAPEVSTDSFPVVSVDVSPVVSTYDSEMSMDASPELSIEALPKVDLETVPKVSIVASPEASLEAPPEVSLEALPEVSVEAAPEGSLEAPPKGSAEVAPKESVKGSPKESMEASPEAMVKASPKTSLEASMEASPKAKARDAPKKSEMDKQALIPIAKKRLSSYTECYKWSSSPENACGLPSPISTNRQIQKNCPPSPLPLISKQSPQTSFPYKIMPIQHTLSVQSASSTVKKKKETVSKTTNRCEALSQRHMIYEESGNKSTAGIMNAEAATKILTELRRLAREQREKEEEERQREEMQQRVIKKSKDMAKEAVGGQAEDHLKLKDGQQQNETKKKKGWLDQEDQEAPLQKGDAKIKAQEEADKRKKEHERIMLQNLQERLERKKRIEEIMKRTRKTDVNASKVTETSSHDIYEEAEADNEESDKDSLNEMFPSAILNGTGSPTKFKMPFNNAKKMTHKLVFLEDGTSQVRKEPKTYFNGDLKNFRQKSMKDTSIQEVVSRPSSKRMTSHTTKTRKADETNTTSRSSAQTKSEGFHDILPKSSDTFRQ
UniProt P43355: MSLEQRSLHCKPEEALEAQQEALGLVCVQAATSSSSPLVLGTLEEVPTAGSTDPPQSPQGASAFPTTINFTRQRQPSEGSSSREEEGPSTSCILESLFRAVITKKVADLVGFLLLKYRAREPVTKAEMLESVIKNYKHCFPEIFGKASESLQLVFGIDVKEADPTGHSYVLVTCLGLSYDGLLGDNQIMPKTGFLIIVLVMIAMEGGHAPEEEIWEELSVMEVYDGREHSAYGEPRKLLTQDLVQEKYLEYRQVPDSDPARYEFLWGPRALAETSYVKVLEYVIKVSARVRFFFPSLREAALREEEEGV
UniProt Q8ND56: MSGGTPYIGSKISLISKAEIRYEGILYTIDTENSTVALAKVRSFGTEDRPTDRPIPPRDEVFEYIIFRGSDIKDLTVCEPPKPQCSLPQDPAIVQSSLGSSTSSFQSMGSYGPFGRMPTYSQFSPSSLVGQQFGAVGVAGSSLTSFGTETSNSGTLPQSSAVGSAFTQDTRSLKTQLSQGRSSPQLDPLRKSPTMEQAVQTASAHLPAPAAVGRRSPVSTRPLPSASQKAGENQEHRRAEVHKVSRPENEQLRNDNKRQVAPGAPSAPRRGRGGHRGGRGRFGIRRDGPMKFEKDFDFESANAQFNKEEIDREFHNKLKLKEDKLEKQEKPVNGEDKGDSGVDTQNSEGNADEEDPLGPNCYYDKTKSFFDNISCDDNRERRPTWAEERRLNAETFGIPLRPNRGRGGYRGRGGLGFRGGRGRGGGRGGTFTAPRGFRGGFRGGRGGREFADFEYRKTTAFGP
UniProt Q9Y4Y9: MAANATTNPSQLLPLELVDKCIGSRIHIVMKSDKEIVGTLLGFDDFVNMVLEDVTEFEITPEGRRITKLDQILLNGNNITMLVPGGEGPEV
UniProt Q96QZ7: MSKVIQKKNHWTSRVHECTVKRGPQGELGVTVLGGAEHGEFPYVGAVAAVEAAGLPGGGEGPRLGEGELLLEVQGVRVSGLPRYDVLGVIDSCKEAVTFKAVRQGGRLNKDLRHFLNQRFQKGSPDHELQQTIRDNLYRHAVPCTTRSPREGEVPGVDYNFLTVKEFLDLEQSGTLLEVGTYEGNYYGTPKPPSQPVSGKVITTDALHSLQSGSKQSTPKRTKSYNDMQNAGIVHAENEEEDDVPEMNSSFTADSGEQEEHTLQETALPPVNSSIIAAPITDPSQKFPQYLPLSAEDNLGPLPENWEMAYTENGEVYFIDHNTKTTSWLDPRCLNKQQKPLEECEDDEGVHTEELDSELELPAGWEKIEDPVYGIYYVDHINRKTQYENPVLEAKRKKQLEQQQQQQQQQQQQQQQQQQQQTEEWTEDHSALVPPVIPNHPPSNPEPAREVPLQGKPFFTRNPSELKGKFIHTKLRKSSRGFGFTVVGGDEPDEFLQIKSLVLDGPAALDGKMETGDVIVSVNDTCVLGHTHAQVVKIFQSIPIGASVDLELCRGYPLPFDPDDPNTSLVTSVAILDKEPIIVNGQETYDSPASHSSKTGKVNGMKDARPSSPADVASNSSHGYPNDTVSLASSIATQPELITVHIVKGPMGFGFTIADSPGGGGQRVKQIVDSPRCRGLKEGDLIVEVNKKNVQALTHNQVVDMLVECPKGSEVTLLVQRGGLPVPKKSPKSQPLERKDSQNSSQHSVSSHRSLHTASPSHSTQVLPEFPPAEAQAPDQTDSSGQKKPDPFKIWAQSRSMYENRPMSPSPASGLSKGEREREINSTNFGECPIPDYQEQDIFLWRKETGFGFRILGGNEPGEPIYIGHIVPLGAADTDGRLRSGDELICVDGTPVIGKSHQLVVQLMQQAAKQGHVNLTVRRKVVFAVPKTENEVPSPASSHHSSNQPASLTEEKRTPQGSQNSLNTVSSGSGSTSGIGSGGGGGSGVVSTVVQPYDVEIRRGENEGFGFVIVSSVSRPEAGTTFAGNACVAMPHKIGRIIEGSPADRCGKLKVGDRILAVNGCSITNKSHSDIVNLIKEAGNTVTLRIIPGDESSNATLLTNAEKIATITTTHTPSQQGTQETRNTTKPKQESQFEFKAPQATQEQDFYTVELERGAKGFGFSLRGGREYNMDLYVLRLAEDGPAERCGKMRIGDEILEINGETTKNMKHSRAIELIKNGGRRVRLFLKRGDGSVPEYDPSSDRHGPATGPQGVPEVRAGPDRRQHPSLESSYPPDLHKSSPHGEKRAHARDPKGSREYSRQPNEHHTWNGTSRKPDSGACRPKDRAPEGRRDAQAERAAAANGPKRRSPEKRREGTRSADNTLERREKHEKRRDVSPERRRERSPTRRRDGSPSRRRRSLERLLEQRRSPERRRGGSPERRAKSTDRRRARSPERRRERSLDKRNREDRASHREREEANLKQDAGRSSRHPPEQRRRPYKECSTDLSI
UniProt Q9Y2U5: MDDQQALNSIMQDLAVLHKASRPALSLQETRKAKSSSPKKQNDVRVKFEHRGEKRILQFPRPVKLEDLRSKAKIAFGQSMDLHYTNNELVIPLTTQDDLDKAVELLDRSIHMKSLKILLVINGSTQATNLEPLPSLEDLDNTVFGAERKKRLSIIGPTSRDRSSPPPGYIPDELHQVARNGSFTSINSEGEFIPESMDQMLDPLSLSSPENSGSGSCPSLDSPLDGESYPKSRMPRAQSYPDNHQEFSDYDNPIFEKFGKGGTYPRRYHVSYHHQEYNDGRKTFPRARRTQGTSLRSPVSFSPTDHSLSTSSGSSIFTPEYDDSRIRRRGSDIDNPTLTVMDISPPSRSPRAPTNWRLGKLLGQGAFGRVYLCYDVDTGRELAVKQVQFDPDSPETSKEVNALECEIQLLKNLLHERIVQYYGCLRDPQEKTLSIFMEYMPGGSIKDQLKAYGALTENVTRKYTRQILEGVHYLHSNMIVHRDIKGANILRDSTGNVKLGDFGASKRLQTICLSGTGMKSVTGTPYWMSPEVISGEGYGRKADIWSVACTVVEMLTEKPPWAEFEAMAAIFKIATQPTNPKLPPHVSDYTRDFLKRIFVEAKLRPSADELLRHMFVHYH

[2] = compound: CC1=C(SC2=C1C(=N[C@H](C3=NN=C(N32)C)CC(=O)N)C4=CC=C(C=C4)Cl)C
Summary of the method: as §1

[3] = compound: CC1=C2C(=CC=C1)N=C(N(C2=O)C3=CC=CC=C3C)CN4C=NC5=C(N=CN=C54)N
Summary of the method: as §1

[4] = compound: Cc1sc2c(c1C)C(c1ccc(Cl)cc1)=N[C@@H](CC(=O)OC(C)(C)C)c1nnc(C)n1-2
Summary of the method: as §1

[5] = compound: c1ccc([C@@H]2C[C@H]2NC2CCNCC2)cc1
Summary of the method: as §1

Measured: log2 fold change

MAPK9 (UniProt P45984)
inactive: [1] 0.015 | [2] 0.015 | [3] 0.039 | [4] -0.042 | [5] 0.004

MAN1A2 (UniProt O60476)
inactive: [1] 0.017 | [2] -0.034 | [3] 0.008 | [4] -0.001 | [5] 0.043

MACC1 (UniProt Q6ZN28)
inactive: [1] 0.049 | [2] 0.011 | [3] -0.053 | [4] 0.034 | [5] -0.11

MAD2L1 (UniProt Q13257)
inactive: [1] -0.045 | [2] 0.077 | [3] 0.067 | [4] -0.021 | [5] -0.019

LTV1 (UniProt Q96GA3)
inactive: [1] -0.02 | [2] -0.137 | [3] -0.033 | [4] 0.17 | [5] 0

LYN (UniProt P07948)
inactive: [1] 0.035 | [2] 0.038 | [3] 0.013 | [4] 0.028 | [5] -0.043

LYZ (UniProt P61626)
inactive: [1] 0.196 | [2] -0.017 | [3] -0.431 | [4] 0.092 | [5] 0.207

MAD1L1 (UniProt Q9Y6D9)
inactive: [1] -0.018 | [2] 0.008 | [3] 0.206 | [4] -0.045 | [5] 0.2

MACF1 (UniProt H3BQK9)
inactive: [1] -0.026 | [2] 0.013 | [3] 0.309 | [4] 0.029 | [5] -0.04

MAP7D3 (UniProt Q8IWC1)
inactive: [1] 0.01 | [2] -0.264 | [5] 0.097

MAEA (UniProt Q7L5Y9)
inactive: [1] -0.003 | [2] 0.021 | [3] 0.044 | [4] 0.001 | [5] 0.021

MAN2B1 (UniProt O00754)
inactive: [1] 0.06 | [2] 0.046 | [3] 0.056 | [4] 0.027 | [5] 0.05

MAGEA1 (UniProt P43355)
inactive: [1] -0.12 | [2] -0.031 | [5] -0.042

MAN1B1 (UniProt Q9UKM7)
inactive: [1] 0 | [2] 0.021 | [3] 0.108 | [4] -0.017 | [5] -0.064

MAP11 (UniProt Q8WVR3)
inactive: [1] -0.044 | [2] 0.001 | [3] 0.021 | [5] 0.124

LSM14A isoform 2 (UniProt Q8ND56)
inactive: [1] 0.007 | [2] 0.03 | [3] 0.096 | [4] 0.009 | [5] -0.031

LYSMD1 (UniProt Q96S90)
inactive: [1] -0.019 | [2] 0.028 | [3] 0.058 | [4] 0.021 | [5] 0.029

LSM5 (UniProt Q9Y4Y9)
inactive: [1] -0.227 | [2] -0.264 | [4] -0.125 | [5] -0.36

MAGEA9 (UniProt P43362)
inactive: [1] 0.046 | [2] -0.03 | [3] 0.047 | [4] -0.055 | [5] -0.067

MAP7D1 (UniProt Q3KQU3)
inactive: [1] 0.068 | [2] -0.214 | [3] -0.133 | [4] 0.244 | [5] 0.023

MACO1 (UniProt Q8N5G2)
inactive: [1] -0.025 | [2] 0.038 | [3] -0.008 | [4] 0.03 | [5] -0.048

MAGI1 (UniProt Q96QZ7)
inactive: [1] 0.025 | [2] -0.026 | [3] -0.005 | [4] 0.054 | [5] -0.016

MADD isoform 2 (UniProt Q8WXG6)
inactive: [1] -0.148 | [2] -0.143 | [4] 0.118 | [5] -0.189

LRWD1 (UniProt Q9UFC0)
inactive: [1] -0.053 | [2] 0.079 | [3] 0.2 | [4] -0.001 | [5] -0.11

Taken from above (4 entries):
MAGEA9 (UniProt P43362)
inactive: [1] 0.046 | [2] -0.03 | [3] 0.047 | [4] -0.055 | [5] -0.067

MAP7D1 (UniProt Q3KQU3)
inactive: [1] 0.068 | [2] -0.214 | [3] -0.133 | [4] 0.244 | [5] 0.023

MACO1 (UniProt Q8N5G2)
inactive: [1] -0.025 | [2] 0.038 | [3] -0.008 | [4] 0.03 | [5] -0.048

MAGI1 (UniProt Q96QZ7)
inactive: [1] 0.025 | [2] -0.026 | [3] -0.005 | [4] 0.054 | [5] -0.016

Next entries follow:

MAP3K2 (UniProt Q9Y2U5)
inactive: [1] 0.273 | [2] 0.002 | [3] 0.198 | [4] -0.035 | [5] -0.123
